Source: paper PMC9732310
No constants are given. Whether binding was seen depends on the method and setting. For part of these data: Binding seen in cells or lysates may run through a third protein. Some results given as binding are weak or reduced against the parent protein; the word gives no strength. For part of these data: Tags and fused reporters may be left off the sequences shown. Each block holds one substance with its values, some of them ahead of it.

Sequences of proteins named here, by UniProt entry; tags and fusion partners are left off.
UniProt P17931: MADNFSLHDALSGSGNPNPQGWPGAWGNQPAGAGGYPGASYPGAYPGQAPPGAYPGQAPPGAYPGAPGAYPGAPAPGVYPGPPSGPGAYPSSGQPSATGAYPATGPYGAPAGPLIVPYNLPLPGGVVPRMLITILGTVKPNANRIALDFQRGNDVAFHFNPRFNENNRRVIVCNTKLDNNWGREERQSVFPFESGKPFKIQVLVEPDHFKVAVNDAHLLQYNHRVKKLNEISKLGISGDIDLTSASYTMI
UniProt P21281: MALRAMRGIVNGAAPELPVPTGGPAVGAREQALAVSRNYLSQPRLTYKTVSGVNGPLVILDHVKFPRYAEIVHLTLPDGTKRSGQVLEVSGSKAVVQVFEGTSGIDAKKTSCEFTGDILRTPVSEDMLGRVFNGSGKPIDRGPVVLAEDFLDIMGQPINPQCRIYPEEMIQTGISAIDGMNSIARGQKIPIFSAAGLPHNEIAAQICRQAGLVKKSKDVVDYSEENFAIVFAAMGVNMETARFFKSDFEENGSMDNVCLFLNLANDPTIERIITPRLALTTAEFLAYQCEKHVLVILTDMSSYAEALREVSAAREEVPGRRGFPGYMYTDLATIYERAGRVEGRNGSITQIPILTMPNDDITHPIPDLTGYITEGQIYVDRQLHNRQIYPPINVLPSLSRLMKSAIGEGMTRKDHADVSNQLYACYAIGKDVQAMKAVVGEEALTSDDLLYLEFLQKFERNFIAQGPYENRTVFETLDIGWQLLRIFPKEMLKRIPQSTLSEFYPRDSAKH

What was measured:
FLAG-galectin-4 = target: T1, FLAG-galectin-4 (UniProt P56470); assay: co-IP; lysates of HEK-293T cells transfected with a FLAG-tagged galectin (FLAG-Gal3, FLAG-Gal2, FLAG-Gal4), anti-FLAG M2 affinity gel, immunoblot of the endogenous proteins; lysis buffer 50 mM Tris-HCl pH 8.0, 150 mM NaCl, 0.5% NP40; for FLAG-Gal3 also after starvation of amino acids and glucose for 1 h and LPS (1 ug/ml) for 5 h (binding to RagA/RagC and p14/p18 enhanced, still none to GATOR1 or GATOR2)
T1 sequence: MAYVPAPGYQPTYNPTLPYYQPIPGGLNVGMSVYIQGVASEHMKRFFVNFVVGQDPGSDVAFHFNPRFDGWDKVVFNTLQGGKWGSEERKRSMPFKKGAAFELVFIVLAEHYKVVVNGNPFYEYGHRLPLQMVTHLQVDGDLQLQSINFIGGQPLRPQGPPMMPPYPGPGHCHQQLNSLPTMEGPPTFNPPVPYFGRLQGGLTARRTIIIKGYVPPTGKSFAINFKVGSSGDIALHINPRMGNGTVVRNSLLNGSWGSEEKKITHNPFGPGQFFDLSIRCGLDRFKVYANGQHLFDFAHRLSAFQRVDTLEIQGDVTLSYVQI

[1] = target: galectin-3 (co-expressed from a plasmid with RagA/RagC and p14/p18) (UniProt P17931); assay: co-IP; HEK-293T cells co-transfected with plasmids for galectin-3, RagA/RagC (wild type or mutants) and p14/p18; anti-FLAG precipitation, immunoblot; the experiments with Rag mutants after LPS (1 ug/ml) for 6 h
FLAG-tagged galectin-3 [2] = target: FLAG-tagged galectin-3 (UniProt P17931); assay: SEC; anti-FLAG affinity eluate of HEK-293T cells stably expressing FLAG-Gal3 fractionated by FPLC on a Superose 6 column (dithiothreitol-containing buffer, 0.5 ml/min); immunoblot of the fractions
[3] = target: galectin-3 (human (endogenous in HEK-293T)) (UniProt P17931); assay: co-IP; endogenous proteins of HEK-293T lysate; precipitation with anti-galectin-3 and blots for the partners, or precipitation with antibodies against the partners and blot for galectin-3; protein G agarose beads, 4 C
FLAG-tagged galectin-3 [4] = target: FLAG-tagged galectin-3 (UniProt P17931); assay: co-IP; lysates of HEK-293T cells transfected with a FLAG-tagged galectin (FLAG-Gal3, FLAG-Gal2, FLAG-Gal4), anti-FLAG M2 affinity gel, immunoblot of the endogenous proteins; lysis buffer 50 mM Tris-HCl pH 8.0, 150 mM NaCl, 0.5% NP40; for FLAG-Gal3 also after starvation of amino acids and glucose for 1 h and LPS (1 ug/ml) for 5 h (binding to RagA/RagC and p14/p18 enhanced, still none to GATOR1 or GATOR2)
[5] = target: FLAG-Gal3 (in HepG2 cells) (UniProt P17931); assay: co-IP; lysates of HepG2 cells transfected with FLAG-Gal3, anti-FLAG precipitation, immunoblot of the endogenous proteins
[6] = target: RagC (human (endogenous in HEK-293T)) (UniProt Q9HB90); assay: co-IP; endogenous proteins of HEK-293T lysate; precipitation with anti-galectin-3 and blots for the partners, or precipitation with antibodies against the partners and blot for galectin-3; protein G agarose beads, 4 C
[7] = target: p14 (human (endogenous in HEK-293T)) (UniProt Q9Y2Q5); assay: as above
[8] = target: p18 (human (endogenous in HEK-293T)) (UniProt Q6IAA8); assay: as above
GST-galectin-3 = GST-galectin-3 (UniProt P17931); assay: pull-down; about 5 ug GST fusion protein on glutathione-Sepharose beads with 5-8 ul in vitro transcribed/translated product; 75 mM NaCl, 50 mM HEPES pH 7.9, 4 C, 2 h; western blot; only the target purified
GST-fused RagC = GST-fused RagC (UniProt Q9HB90); assay: as above
GST-fused p14 = GST-fused p14 (UniProt Q9Y2Q5); assay: as above
GST-fused p18 = GST-fused p18 (UniProt Q6IAA8); assay: as above

Substance: ATP6V1B2 (from UniProt P21281 1-511)
- binding (FLAG-galectin-4): binds

Substance: RagA^Q66L (from UniProt Q7L523 1-313)
- binding [1]: binds

Substance: RagC (co-expressed from a plasmid) (from UniProt Q9HB90 1-399)
- binding [1]: binds

Substance: RagC (from UniProt Q9HB90 1-399)
- binding (FLAG-tagged galectin-3 [2]): binds
- binding [3]: binds
- binding (FLAG-tagged galectin-3 [4]): binds

Substance: in vitro transcribed/translated RagC (from UniProt Q9HB90 1-399)
- binding (GST-galectin-3): binds

Substance: in vitro transcribed/translated p14 (from UniProt Q9Y2Q5 1-125)
- binding (GST-galectin-3): binds

Substance: p14 (in HepG2 cells) (from UniProt Q9Y2Q5 1-125)
- binding [5]: binds

Other lines, results leading:

- binding [1]: binds
Substance: RagA (co-expressed from a plasmid) (from UniProt Q7L523 1-313) (other; other documents disagree on this pair)

- binding (FLAG-tagged galectin-3 [2]): binds
- binding [3]: binds
- binding (FLAG-tagged galectin-3 [4]): binds
Substance: RagA (from UniProt Q7L523 1-313) (other; other documents disagree on this pair)

- binding [5]: binds
Substance: RagA (in HepG2 cells) (from UniProt Q7L523 1-313) (other; other documents disagree on this pair)

- binding [5]: binds
Substance: RagC (in HepG2 cells) (from UniProt Q9HB90 1-399)

- binding [1]: binds
Substance: RagC^S75N (from UniProt Q9HB90 1-399)

- binding [6]: binds
- binding [7]: binds
- binding [8]: binds
Substance: galectin-3 (from UniProt P17931 1-250)

- binding (GST-galectin-3): binds
Substance: in vitro transcribed/translated RagA (from UniProt Q7L523 1-313) (other; other documents disagree on this pair)

- binding (GST-fused RagC): binds
- binding (GST-fused p14): binds
- binding (GST-fused p18): binds
Substance: in vitro transcribed/translated galectin-3 (from UniProt P17931 1-250)

- binding [1]: binds
Substance: p14 (co-expressed from a plasmid) (from UniProt Q9Y2Q5 1-125)

- binding (FLAG-tagged galectin-3 [2]): binds
- binding [3]: binds
- binding (FLAG-tagged galectin-3 [4]): binds
Substance: p14 (from UniProt Q9Y2Q5 1-125)
